# The supplement of paper PMC11732987, “Enantioselective OTUD7B fragment discovery through chemoproteomics screening and high-throughput optimisation” (Communications Chemistry, 2025)
# The other results are listed elsewhere or left out. The data scatter; read single values as rough.
# Legend:
# [1] = compound: ClCC(=O)N[C@@H]1CCCc2ccccc12; assay: log2 mean competition ratio of IA-DTB cysteine labelling (DMSO/compound) (log2 ratio); higher = stronger cysteine engagement by compound; conditions: treatment time: 4 h, cell line lysate: HEK293T
# Procedure: (§1)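 IA-DTB competitive cysteine chemoproteomics in HEK293T RIPA lysate. Lysates were treated with compound 29 or 30 at 50 or 200 µM for 4 h, then IA-DTB (500 µM, 1 h), trypsin-digested, NeutrAvidin-enriched and analysed by diaPASEF. Competition ratio = intensity DMSO / intensity compound (n=4 treated, n=64 DMSO); binding: mean log2 CR ≥ 1 and p ≤ 0.05 plus QC filters. Target is the cysteine site.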
# [2] = compound: ClCC(=O)N[C@H]1CCCc2ccccc12; assay: as above; conditions: treatment time: 4 h, cell line lysate: HEK293T
# Procedure: as §1
Target,log2 mean competition ratio ([1]; 50 µM),log2 mean competition ratio ([1]; 200 µM),log2 mean competition ratio ([2]; 50 µM),log2 mean competition ratio ([2]; 200 µM)
CSE1L C842 (UniProt P55060),0.059,0.0446,0.0768,0.0915
CUL2 C395 (UniProt Q13617),0.289,0.488,0.353,0.443
DDR2 C580 (UniProt Q16832),-0.278,0.676,-0.731,-0.258
CUL1 C355 (UniProt Q13616),-0.128,-0.146,0.282,0.0652
CTC1 C535 (UniProt Q2NKJ3),0.546,0.201,0.258,0.00716
DAZAP1 C85,0.114,-0.228,0.208,-0.163
CYB5R1 C208 (UniProt Q9UHQ9),-0.191,-0.283,-0.189,0.0204
CUX1 C1078,-0.171,-0.0954,0.153,-0.184
CUL7 C828 (UniProt Q14999),-0.184,-0.0199,-0.433,-0.0333
DDX46 C501,-0.209,-0.202,0.3,-0.103
DDX3X C128 (UniProt O00571),0.293,0.154,-0.101,0.0955
DCAF13 C342 (UniProt Q9NV06),0.0903,-0.0667,-0.222,-0.131
DDX51 C187 (UniProt Q8N8A6),0.245,0.0517,0.38,0.101
CTNNB1 C466 (UniProt P35222),-0.385,0.232,-0.505,0.185
CTSB C211 (UniProt P07858),0.00786,0.131,-0.441,0.088
CUL2 C103 (UniProt Q13617),0.325,-0.0188,0.0717,-0.0144
DDX28 C453 (UniProt Q9NUL7),0.151,0.00405,-0.00781,0.153
DECR1 C116,0.254,-0.164,0.434,0.186
CTCF C577 (UniProt P49711),0.144,-0.398,-0.402,-0.158
CTNNA1 C116 (UniProt P35221),-0.121,-0.451,0.0258,-0.382
DCAF6 C593 (UniProt Q58WW2),-0.0267,0.0506,-0.243,-0.0252
DDX39A C197 (UniProt O00148),-0.00628,0.257,-0.424,0.146
DCAF7 C256 (UniProt P61962),-0.155,-0.0318,-0.29,-0.139
DCAF15 C347 (UniProt Q66K64),-0.191,0.319,-0.488,0.208
CRBN C287 (UniProt Q96SW2),0.136,-0.125,-0.244,0.0457

# Some of the entries so far, bar-delimited:
Target | log2 mean competition ratio ([1]; 50 µM) | log2 mean competition ratio ([1]; 200 µM) | log2 mean competition ratio ([2]; 50 µM) | log2 mean competition ratio ([2]; 200 µM)
CSE1L C842 (UniProt P55060) | 0.059 | 0.0446 | 0.0768 | 0.0915
DDR2 C580 (UniProt Q16832) | -0.278 | 0.676 | -0.731 | -0.258
CUL1 C355 (UniProt Q13616) | -0.128 | -0.146 | 0.282 | 0.0652
CTC1 C535 (UniProt Q2NKJ3) | 0.546 | 0.201 | 0.258 | 0.00716
CYB5R1 C208 (UniProt Q9UHQ9) | -0.191 | -0.283 | -0.189 | 0.0204
DDX46 C501 | -0.209 | -0.202 | 0.3 | -0.103
DDX3X C128 (UniProt O00571) | 0.293 | 0.154 | -0.101 | 0.0955
CTNNB1 C466 (UniProt P35222) | -0.385 | 0.232 | -0.505 | 0.185
CUL2 C103 (UniProt Q13617) | 0.325 | -0.0188 | 0.0717 | -0.0144
CTCF C577 (UniProt P49711) | 0.144 | -0.398 | -0.402 | -0.158
CTNNA1 C116 (UniProt P35221) | -0.121 | -0.451 | 0.0258 | -0.382
DCAF6 C593 (UniProt Q58WW2) | -0.0267 | 0.0506 | -0.243 | -0.0252
DDX39A C197 (UniProt O00148) | -0.00628 | 0.257 | -0.424 | 0.146
CRBN C287 (UniProt Q96SW2) | 0.136 | -0.125 | -0.244 | 0.0457

# Continuation:

Target,log2 mean competition ratio ([1]; 50 µM),log2 mean competition ratio ([1]; 200 µM),log2 mean competition ratio ([2]; 50 µM),log2 mean competition ratio ([2]; 200 µM)
CSTF2 C150 (UniProt P33240),0.207,0.00457,0.276,0.0269
DDX21 C445 (UniProt Q9NR30),-0.0439,-0.271,0.23,-0.0752
CREB5 C441,0.2,-0.13,0.093,0.00926
DCAF4 C88 (UniProt Q8WV16),0.0854,-0.256,0.0327,0.0234
CTTNBP2 C1494,0.235,0.266,0.317,0.451
DCLRE1A C207,-0.236,0.0278,-0.158,0.124
DARS2 C371 (UniProt Q6PI48),-0.159,0.0336,0.0748,0.0985
DDX23 C409 (UniProt Q9BUQ8),0.0804,-0.268,-0.135,-0.195
D2HGDH C198 (UniProt Q8N465),0.426,-0.00119,0.00366,-0.0399
CTBP1 C38,-0.162,0.0699,-0.304,0.18
CSE1L C939 (UniProt P55060),0.143,0.0323,0.217,0.0842
DCAF5 C349 (UniProt Q96JK2),0.296,-0.232,-0.388,-0.55
DCAF5 C503 (UniProt Q96JK2),0.0981,0.437,-0.454,0.126
DARS1 C76,0.65,-0.0247,0.386,-0.0819
CRYL1 C285 (UniProt Q9Y2S2),0.0733,-0.18,0.163,-0.278
DCTN1 C81 (UniProt Q14203),-0.00399,0.135,-0.524,0.0142
DENND1A C338 (UniProt Q8TEH3),-0.141,-0.259,-0.343,-0.106
DCXR C150 (UniProt Q7Z4W1),0.217,-0.0376,0.262,-0.195
CUL3 C298 (UniProt Q13618),0.0136,0.0718,-0.0182,0.115
DDX20 C338 (UniProt Q9UHI6),0.169,-0.165,0.172,-0.28
CYP20A1 C409 (UniProt Q6UW02),0.0223,0.0638,0.0658,0.373
CSNK1E C241 (UniProt P49674),0.494,0.218,0.492,0.269
CRKL C44 (UniProt P46109),-0.175,-0.246,0.395,-0.0934
DDX41 C338 (UniProt Q9UJV9),0.00306,0.143,0.161,0.155
CWF19L1 C511 (UniProt Q69YN2),-0.284,-0.126,-0.127,-0.031
